Values of other authors in patent publication US6919370B2, “Pharmaceutical formulations comprising paclitaxel, derivatives, and pharmaceutically acceptable salts thereof” (TransForm Pharmaceuticals, Inc., priority 2000, dated 2005).

solubility in water: practically insoluble
SMILES: CC(=O)O[C@H]1C(=O)[C@@]2(C)[C@H]([C@H](OC(=O)c3ccccc3)[C@]3(O)C[C@H](OC(=O)[C@H](O)[C@@H](NC(=O)c4ccccc4)c4ccccc4)C(C)=C1C3(C)C)[C@]1(OC(C)=O)CO[C@@H]1C[C@@H]2O [Paclitaxel, paclitaxel]
